{"sequences": {"note": "Sequences of proteins named here, by UniProt entry; tags and fusion partners are left off.", "UniProt P03372": "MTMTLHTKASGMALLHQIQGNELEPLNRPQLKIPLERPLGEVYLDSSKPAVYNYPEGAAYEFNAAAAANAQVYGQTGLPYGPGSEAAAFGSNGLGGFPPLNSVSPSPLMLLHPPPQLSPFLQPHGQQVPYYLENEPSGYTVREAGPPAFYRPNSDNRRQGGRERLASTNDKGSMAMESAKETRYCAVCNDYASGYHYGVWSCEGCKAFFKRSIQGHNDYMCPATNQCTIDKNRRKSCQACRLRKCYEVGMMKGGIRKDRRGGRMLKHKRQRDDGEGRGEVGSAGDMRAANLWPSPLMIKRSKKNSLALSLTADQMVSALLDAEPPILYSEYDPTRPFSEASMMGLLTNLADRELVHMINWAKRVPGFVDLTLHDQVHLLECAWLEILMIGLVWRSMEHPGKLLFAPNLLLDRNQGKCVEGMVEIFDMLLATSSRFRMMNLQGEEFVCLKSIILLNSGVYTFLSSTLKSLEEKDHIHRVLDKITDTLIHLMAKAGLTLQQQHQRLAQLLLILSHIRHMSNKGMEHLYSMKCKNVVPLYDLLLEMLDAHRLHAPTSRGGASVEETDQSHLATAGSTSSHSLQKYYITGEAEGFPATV"}, "source": "paper PMC7479224", "molecular_target": "estrogen receptor α (human) (UniProt P03372)", "test": "co-IP; in TNBC cells; immunoprecipitated with Protein G Plus/Protein A agarose beads, Western blot detection; which protein was precipitated not given", "note": "No constants are given. Whether binding was seen depends on the method and setting. Binding seen in cells or lysates may run through a third protein. Some entries that bind do so weakly or less than the wild type. Where a sequence is shown, tags or fusion partners need not be part of it."}
{"binder": "UDP-glucuronosyltransferase UGT1A1 (enzyme, UniProt P22309-1 26-533) HAGKILLIPVDGSHWLSMLGAIQQLQQRGHEIVVLAPDASLYIRDGAFYTLKTYPVPFQREDVKESFVSLGHNVFENDSFLQRVIKTYKKIKKDSAMLLSGCSHLLHNKELMASLAESSFDVMLTDPFLPCSPIVAQYLSLPTVFFLHALPCSLEFEATQCPNPFSYVPRPLSSHSDHMTFLQRVKNMLIAFSQNFLCDVVYSPYATLASEFLQREVTVQDLLSSASVWLFRSDFVKDYPRPIMPNMVFVGGINCLHQNPLSQEFEAYINASGEHGIVVFSLGSMVSEIPEKKAMAIADALGKIPQTVLWRYTGTRPSNLANNTILVKWLPQNDLLGHPMTRAFITHAGSHGVYESICNGVPMVMMPLFGDQMDNAKRMETKGAGVTLNVLEMTSEDLENALKAVINDKSYKENIMRLSSLHKDRPVEPLDLAVFWVEFVMRHKGAPHLRPAAHDLTWYQYHSLDVIGFLLAVVLTVAFITFKCCAYGYRKCLGKKGRVKKAHKSKTH", "values": [{"measurement": "binding", "value": "binds"}]}
